# Laboratory results: ChEMBL document CHEMBL2218924, “A broad activity screen in support of a chemogenomic map for kinase signalling research and drug discovery” (Biochem J, 2013)
# Protein sequences, listed by entry. Tags and fused reporters are not part of them. Lines headed by an entry give the natural chain unless they say otherwise; changes in a name come on top.
# UniProt P53778: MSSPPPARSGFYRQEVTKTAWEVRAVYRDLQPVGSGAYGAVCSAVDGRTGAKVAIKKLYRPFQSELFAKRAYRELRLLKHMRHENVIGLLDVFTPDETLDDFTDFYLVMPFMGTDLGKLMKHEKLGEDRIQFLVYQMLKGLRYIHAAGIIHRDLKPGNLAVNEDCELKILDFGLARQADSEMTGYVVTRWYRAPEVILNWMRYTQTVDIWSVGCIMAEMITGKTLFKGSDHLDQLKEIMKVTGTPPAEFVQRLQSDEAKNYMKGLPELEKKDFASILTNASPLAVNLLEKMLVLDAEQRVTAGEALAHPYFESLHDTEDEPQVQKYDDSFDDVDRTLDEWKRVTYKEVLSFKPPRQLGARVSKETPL
# UniProt P78362, whole entry, looked up: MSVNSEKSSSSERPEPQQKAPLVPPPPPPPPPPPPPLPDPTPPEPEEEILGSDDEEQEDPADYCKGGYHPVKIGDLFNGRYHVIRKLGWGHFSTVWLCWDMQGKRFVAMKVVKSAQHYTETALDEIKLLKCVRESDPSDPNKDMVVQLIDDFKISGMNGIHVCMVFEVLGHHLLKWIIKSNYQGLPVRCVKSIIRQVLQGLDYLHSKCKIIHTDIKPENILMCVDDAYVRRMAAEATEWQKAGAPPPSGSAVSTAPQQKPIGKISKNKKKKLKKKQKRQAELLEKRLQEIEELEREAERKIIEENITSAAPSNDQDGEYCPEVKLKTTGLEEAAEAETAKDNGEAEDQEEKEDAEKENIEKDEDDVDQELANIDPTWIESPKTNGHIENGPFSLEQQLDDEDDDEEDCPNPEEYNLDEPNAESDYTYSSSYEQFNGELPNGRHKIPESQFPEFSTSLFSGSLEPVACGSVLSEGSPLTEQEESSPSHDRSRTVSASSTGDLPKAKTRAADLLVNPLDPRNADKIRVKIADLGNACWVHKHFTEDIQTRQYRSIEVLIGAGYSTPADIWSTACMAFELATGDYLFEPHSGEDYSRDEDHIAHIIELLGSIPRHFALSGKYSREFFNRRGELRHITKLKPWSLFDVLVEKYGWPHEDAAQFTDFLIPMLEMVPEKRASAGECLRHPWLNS
# UniProt Q9H2K8: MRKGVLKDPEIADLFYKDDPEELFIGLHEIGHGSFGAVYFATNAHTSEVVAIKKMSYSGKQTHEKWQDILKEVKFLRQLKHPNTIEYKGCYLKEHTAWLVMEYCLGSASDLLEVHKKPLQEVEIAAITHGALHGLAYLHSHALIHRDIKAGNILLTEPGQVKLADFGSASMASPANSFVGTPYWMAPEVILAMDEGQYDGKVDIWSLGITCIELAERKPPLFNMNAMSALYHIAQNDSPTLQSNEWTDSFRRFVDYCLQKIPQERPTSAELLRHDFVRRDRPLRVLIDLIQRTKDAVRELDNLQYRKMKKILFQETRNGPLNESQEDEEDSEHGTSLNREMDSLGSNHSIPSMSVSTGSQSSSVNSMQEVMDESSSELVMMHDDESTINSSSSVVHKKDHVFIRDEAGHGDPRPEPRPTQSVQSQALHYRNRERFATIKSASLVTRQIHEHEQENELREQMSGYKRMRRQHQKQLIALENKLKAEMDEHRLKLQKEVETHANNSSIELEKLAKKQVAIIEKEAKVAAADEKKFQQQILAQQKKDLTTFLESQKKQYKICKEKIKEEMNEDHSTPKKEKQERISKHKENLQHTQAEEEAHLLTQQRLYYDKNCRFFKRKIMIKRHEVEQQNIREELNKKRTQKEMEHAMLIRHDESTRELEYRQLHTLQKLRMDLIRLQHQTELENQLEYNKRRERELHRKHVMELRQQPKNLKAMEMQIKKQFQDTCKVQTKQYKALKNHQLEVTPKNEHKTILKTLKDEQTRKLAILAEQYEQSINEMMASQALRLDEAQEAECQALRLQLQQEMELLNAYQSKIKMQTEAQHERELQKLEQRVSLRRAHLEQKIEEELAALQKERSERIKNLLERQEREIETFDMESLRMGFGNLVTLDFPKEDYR
# UniProt P36897: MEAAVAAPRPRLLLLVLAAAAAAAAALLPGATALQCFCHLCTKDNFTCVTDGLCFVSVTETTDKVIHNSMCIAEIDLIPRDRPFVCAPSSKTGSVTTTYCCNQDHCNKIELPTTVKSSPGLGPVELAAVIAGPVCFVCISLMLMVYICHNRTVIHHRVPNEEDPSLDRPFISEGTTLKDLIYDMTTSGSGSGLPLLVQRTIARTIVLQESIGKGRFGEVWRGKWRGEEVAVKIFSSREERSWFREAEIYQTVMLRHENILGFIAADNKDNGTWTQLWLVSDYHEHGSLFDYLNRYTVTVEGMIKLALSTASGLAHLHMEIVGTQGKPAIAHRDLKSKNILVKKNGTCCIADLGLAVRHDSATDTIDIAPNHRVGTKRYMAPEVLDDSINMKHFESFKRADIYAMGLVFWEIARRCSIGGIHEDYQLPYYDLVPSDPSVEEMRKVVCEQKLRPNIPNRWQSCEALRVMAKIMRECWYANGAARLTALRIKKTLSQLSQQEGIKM
# UniProt O15111: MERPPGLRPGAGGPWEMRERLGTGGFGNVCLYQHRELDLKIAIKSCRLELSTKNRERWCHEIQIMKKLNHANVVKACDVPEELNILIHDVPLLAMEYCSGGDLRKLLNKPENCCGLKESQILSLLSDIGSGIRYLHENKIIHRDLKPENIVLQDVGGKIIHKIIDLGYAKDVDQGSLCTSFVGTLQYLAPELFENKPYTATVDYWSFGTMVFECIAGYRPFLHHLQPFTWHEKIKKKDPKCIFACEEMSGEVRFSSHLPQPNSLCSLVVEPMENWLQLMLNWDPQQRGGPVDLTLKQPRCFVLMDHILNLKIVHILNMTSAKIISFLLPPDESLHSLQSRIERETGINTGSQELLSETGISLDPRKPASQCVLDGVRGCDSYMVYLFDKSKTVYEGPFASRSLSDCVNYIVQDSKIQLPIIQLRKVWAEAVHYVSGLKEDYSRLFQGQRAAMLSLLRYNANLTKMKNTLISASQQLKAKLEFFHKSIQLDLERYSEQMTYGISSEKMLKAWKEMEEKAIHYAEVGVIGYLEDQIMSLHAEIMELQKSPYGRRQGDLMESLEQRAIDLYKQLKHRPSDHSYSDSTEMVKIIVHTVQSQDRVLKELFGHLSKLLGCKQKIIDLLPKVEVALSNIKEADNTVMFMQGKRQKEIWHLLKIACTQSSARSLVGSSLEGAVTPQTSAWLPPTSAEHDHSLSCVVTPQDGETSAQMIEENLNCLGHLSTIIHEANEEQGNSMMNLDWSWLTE
# UniProt P06213, whole entry: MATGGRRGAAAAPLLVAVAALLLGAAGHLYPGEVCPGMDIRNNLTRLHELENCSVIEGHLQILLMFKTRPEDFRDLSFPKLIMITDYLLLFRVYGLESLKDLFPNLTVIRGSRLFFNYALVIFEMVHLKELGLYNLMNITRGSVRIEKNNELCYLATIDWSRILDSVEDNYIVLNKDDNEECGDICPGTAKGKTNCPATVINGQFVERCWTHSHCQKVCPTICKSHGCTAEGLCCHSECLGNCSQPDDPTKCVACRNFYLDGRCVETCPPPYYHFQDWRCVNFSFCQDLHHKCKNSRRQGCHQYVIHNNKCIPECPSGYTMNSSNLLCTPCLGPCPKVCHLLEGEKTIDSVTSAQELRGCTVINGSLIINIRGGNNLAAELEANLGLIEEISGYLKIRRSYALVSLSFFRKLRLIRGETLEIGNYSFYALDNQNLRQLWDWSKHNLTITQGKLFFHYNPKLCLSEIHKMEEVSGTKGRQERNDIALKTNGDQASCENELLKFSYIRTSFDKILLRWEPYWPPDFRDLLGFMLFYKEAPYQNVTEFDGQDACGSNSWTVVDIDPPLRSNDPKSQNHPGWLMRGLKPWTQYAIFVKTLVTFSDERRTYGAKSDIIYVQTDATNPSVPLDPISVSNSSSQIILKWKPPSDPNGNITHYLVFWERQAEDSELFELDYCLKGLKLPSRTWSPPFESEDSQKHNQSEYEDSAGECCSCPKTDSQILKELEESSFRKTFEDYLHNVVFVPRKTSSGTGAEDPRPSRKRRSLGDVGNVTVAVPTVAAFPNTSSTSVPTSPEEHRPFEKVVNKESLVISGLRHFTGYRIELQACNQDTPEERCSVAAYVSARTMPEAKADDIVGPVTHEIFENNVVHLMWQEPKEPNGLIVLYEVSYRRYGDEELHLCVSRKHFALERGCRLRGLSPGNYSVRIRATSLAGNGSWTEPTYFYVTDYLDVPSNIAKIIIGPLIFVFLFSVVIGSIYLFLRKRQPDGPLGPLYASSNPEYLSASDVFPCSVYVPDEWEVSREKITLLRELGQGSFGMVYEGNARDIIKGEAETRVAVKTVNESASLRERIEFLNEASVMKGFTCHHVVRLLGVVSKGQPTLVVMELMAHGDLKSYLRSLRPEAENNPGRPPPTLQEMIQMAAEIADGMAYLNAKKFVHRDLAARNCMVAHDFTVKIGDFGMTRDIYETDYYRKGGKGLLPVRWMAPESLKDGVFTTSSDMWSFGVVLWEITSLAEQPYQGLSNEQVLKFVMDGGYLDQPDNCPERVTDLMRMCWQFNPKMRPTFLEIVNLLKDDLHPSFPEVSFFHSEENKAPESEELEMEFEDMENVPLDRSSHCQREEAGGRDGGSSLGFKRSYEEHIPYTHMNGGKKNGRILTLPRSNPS
# UniProt Q9NWZ3, whole entry: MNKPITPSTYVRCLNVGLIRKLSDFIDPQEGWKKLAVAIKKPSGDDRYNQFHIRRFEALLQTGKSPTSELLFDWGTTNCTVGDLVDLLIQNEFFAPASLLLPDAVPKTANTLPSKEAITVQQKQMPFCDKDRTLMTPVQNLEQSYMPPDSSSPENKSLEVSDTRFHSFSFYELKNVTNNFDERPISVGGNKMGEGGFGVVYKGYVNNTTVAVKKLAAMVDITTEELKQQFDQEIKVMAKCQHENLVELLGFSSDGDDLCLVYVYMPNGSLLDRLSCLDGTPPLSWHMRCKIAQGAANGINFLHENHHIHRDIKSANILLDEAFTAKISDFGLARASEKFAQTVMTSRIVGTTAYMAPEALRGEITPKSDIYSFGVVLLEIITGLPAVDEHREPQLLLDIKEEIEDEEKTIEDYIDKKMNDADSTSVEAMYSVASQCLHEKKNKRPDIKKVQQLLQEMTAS
# UniProt P14616: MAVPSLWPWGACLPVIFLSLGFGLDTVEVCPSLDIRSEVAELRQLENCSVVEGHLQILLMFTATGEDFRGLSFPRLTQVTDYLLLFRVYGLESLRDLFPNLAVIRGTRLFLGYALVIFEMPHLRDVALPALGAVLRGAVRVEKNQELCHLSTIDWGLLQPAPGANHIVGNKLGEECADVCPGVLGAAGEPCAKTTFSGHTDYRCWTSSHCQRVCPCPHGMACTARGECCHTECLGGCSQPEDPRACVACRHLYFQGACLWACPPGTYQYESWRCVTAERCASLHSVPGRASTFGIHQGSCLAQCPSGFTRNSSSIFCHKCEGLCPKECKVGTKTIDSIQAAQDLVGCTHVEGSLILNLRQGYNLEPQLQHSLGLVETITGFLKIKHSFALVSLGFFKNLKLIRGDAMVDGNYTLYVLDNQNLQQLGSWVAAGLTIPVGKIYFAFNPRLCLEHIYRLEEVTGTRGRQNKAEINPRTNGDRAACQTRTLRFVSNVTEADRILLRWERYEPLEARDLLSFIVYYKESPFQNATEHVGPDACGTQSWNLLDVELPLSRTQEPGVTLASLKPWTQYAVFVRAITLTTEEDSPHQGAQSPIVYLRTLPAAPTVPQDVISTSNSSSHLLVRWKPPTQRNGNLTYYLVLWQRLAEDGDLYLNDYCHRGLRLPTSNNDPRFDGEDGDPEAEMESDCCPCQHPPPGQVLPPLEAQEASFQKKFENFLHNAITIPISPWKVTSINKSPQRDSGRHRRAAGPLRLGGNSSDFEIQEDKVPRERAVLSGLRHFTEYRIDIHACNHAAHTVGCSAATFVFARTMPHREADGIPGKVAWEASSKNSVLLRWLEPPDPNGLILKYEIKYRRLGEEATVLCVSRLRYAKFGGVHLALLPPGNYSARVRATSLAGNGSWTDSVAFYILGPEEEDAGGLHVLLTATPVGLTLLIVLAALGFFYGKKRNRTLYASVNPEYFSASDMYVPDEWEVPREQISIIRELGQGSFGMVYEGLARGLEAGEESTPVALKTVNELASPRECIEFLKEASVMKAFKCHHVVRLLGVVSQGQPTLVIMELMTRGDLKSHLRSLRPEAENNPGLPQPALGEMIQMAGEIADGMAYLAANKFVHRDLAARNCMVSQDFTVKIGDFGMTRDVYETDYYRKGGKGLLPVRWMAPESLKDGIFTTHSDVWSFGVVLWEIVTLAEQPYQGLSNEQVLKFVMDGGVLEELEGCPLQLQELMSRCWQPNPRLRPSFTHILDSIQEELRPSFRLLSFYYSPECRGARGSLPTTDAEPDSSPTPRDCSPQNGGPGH
# For some assays here: What follows is the remainder of the data, with few or none of the strong results. The entries are a selection whose mix differs from that of the whole data set.
# Columns and labels:
# [1] = target: Mitogen-activated protein kinase 12 (Homo sapiens) (UniProt P53778); conditions: at 1 µM
# [2] = target: Mitogen-activated protein kinase 12 (Homo sapiens) (UniProt P53778); conditions: at 10 µM
# [3] = target: Mitogen-activated protein kinase 13 (Homo sapiens) (UniProt O15264); conditions: at 1 µM
# [4] = target: Mitogen-activated protein kinase 13 (Homo sapiens) (UniProt O15264); conditions: at 10 µM
# [5] = target: Serine/threonine-protein kinase Sgk1 (Homo sapiens) (UniProt O00141); conditions: at 1 µM
# [6] = target: Serine/threonine-protein kinase Sgk1 (Homo sapiens) (UniProt O00141); conditions: at 10 µM
# [7] = target: Serine/threonine-protein kinase Sgk2 (Homo sapiens) (UniProt Q9HBY8); conditions: at 1 µM
# [8] = target: Serine/threonine-protein kinase Sgk2 (Homo sapiens) (UniProt Q9HBY8); conditions: at 10 µM
# [9] = target: Serine/threonine-protein kinase Sgk3 (Homo sapiens) (UniProt Q96BR1); conditions: at 1 µM
# [10] = target: Serine/threonine-protein kinase Sgk3 (Homo sapiens) (UniProt Q96BR1); conditions: at 10 µM
# [11] = target: Serine/threonine-protein kinase SIK1 (Homo sapiens) (UniProt P57059); conditions: at 1 µM
# [12] = target: Serine/threonine-protein kinase SIK1 (Homo sapiens) (UniProt P57059); conditions: at 10 µM
# [13] = target: SRSF protein kinase 1 (Homo sapiens) (UniProt Q96SB4); conditions: at 1 µM
# [14] = target: SRSF protein kinase 1 (Homo sapiens) (UniProt Q96SB4); conditions: at 10 µM
# [15] = target: SRSF protein kinase 2 (Homo sapiens) (UniProt P78362); conditions: at 1 µM
# [16] = target: SRSF protein kinase 2 (Homo sapiens) (UniProt P78362); conditions: at 10 µM
# [17] = target: Serine/threonine-protein kinase 33 (Homo sapiens) (UniProt Q9BYT3); conditions: at 1 µM
# [18] = target: Serine/threonine-protein kinase 33 (Homo sapiens) (UniProt Q9BYT3); conditions: at 10 µM
# [19] = target: Serine/threonine-protein kinase PLK2 (Homo sapiens) (UniProt Q9NYY3); conditions: at 1 µM
# [20] = target: Serine/threonine-protein kinase PLK2 (Homo sapiens) (UniProt Q9NYY3); conditions: at 10 µM
# [21] = target: Tyrosine-protein kinase SYK (Homo sapiens) (UniProt P43405); conditions: at 1 µM
# [22] = target: Tyrosine-protein kinase SYK (Homo sapiens) (UniProt P43405); conditions: at 10 µM
# [23] = target: Mitogen-activated protein kinase kinase kinase 7 (Homo sapiens) (UniProt O43318); conditions: at 1 µM
# [24] = target: Mitogen-activated protein kinase kinase kinase 7 (Homo sapiens) (UniProt O43318); conditions: at 10 µM
# [25] = target: Serine/threonine-protein kinase TAO1 (Homo sapiens) (UniProt Q7L7X3); conditions: at 1 µM
# [26] = target: Serine/threonine-protein kinase TAO1 (Homo sapiens) (UniProt Q7L7X3); conditions: at 10 µM
# [27] = target: Serine/threonine-protein kinase TAO2 (Homo sapiens) (UniProt Q9UL54); conditions: at 1 µM
# [28] = target: Serine/threonine-protein kinase TAO2 (Homo sapiens) (UniProt Q9UL54); conditions: at 10 µM
# [29] = target: Serine/threonine-protein kinase TAO3 (Homo sapiens) (UniProt Q9H2K8); conditions: at 1 µM
# [30] = target: Serine/threonine-protein kinase TAO3 (Homo sapiens) (UniProt Q9H2K8); conditions: at 10 µM
# [31] = target: Serine/threonine-protein kinase TBK1 (Homo sapiens) (UniProt Q9UHD2); conditions: at 1 µM
# [32] = target: Serine/threonine-protein kinase TBK1 (Homo sapiens) (UniProt Q9UHD2); conditions: at 10 µM
# [33] = target: TGF-beta receptor type-1 (Homo sapiens) (UniProt P36897); conditions: at 1 µM
# [34] = target: TGF-beta receptor type-1 (Homo sapiens) (UniProt P36897); conditions: at 10 µM
# [35] = target: Insulin-like growth factor 1 receptor (Homo sapiens) (UniProt P08069); conditions: at 1 µM
# [36] = target: Insulin-like growth factor 1 receptor (Homo sapiens) (UniProt P08069); conditions: at 10 µM
# [37] = target: Inhibitor of nuclear factor kappa-B kinase subunit alpha (Homo sapiens) (UniProt O15111); conditions: at 1 µM
# [38] = target: Inhibitor of nuclear factor kappa-B kinase subunit alpha (Homo sapiens) (UniProt O15111); conditions: at 10 µM
# [39] = target: Inhibitor of nuclear factor kappa-B kinase subunit beta (Homo sapiens) (UniProt O14920); conditions: at 1 µM
# [40] = target: Inhibitor of nuclear factor kappa-B kinase subunit beta (Homo sapiens) (UniProt O14920); conditions: at 10 µM
# [41] = target: Insulin receptor (Homo sapiens) (UniProt P06213); conditions: at 1 µM
# [42] = target: Insulin receptor (Homo sapiens) (UniProt P06213); conditions: at 10 µM
# [43] = target: Insulin receptor (Homo sapiens) (UniProt P06213); conditions: at 1 µM; remark: listed apart in the source
# [44] = target: Insulin receptor (Homo sapiens) (UniProt P06213); conditions: at 10 µM; remark: listed apart in the source
# [45] = target: Interleukin-1 receptor-associated kinase 1 (Homo sapiens) (UniProt P51617); conditions: at 1 µM
# [46] = target: Interleukin-1 receptor-associated kinase 1 (Homo sapiens) (UniProt P51617); conditions: at 10 µM
# [47] = target: Interleukin-1 receptor-associated kinase 4 (Homo sapiens) (UniProt Q9NWZ3); conditions: at 1 µM
# [48] = target: Interleukin-1 receptor-associated kinase 4 (Homo sapiens) (UniProt Q9NWZ3); conditions: at 10 µM
# [49] = target: Insulin receptor-related protein (Homo sapiens) (UniProt P14616); conditions: at 1 µM
# [50] = target: Insulin receptor-related protein (Homo sapiens) (UniProt P14616); conditions: at 10 µM
# [51] = target: Tyrosine-protein kinase ITK/TSK (Homo sapiens) (UniProt Q08881); conditions: at 1 µM
# [52] = target: Tyrosine-protein kinase ITK/TSK (Homo sapiens) (UniProt Q08881); conditions: at 10 µM
# [53] = target: Mitogen-activated protein kinase 8 (Homo sapiens) (UniProt P45983); conditions: at 1 µM
# [54] = target: Mitogen-activated protein kinase 8 (Homo sapiens) (UniProt P45983); conditions: at 10 µM
# [55] = target: Mitogen-activated protein kinase 9 (Homo sapiens) (UniProt P45984); conditions: at 1 µM
# [56] = target: Mitogen-activated protein kinase 9 (Homo sapiens) (UniProt P45984); conditions: at 10 µM
smiles,measurement,setting,value
O=C1Nc2ccc(-c3cccnc3)cc2/C1=C\c1ccc[nH]1,residual activity,[1],83%
same,residual activity,[2],32%
same,residual activity,[3],73%
same,residual activity,[4],19%
same,residual activity,[5],25%
same,residual activity,[6],1%
same,residual activity,[7],12%
same,residual activity,[8],2%
same,residual activity,[9],58%
same,residual activity,[10],13%
same,residual activity,[11],36%
same,residual activity,[12],10%
same,residual activity,[13],98%
same,residual activity,[14],76%
same,residual activity,[15],96%
same,residual activity,[16],69%
same,residual activity,[17],24%
same,residual activity,[18],4%
same,residual activity,[19],87%
same,residual activity,[20],43%
same,residual activity,[21],90%
same,residual activity,[22],19%
same,residual activity,[23],10%
same,residual activity,[24],-2%
same,residual activity,[25],8%
same,residual activity,[26],2%
same,residual activity,[27],50%
same,residual activity,[28],8%
same,residual activity,[29],13%
same,residual activity,[30],3%
same,residual activity,[31],1%
same,residual activity,[32],0%
same,residual activity,[33],58%
same,residual activity,[34],19%
same,residual activity,[35],88%
same,residual activity,[36],60%
same,residual activity,[37],5%
same,residual activity,[38],0%
same,residual activity,[39],51%
same,residual activity,[40],22%
same,residual activity,[41],71%
same,residual activity,[42],46%
same,residual activity,[43],89%
same,residual activity,[44],56%
same,residual activity,[45],1%
same,residual activity,[46],-1%
same,residual activity,[47],3%
same,residual activity,[48],1%
same,residual activity,[49],122%
same,residual activity,[50],31%
same,residual activity,[51],46%
same,residual activity,[52],8%
same,residual activity,[53],65%
same,residual activity,[54],-5%
same,residual activity,[55],80%
same,residual activity,[56],21%
